Literature values in US9730952B2, “Methods for treating and preventing mucositis” (Indena S.p.A., priority 2006, dated 2017).
At least one compound was matched to its structure with a doubt left.

What was measured:
[1] = system: numerous strains of Candida and other pathogenic fungi

## C[n+]1cc2c3c(ccc2c2ccc4cc5c(cc4c21)OCO5)OCO3 [sanguinarine]
[1]
  concentration inhibiting growth of numerous strains of Candida and other pathogenic fungi: nanomolar concentrations
Gram+ and Gram− bacteria
  concentration inhibiting growth of Gram+ and Gram− bacteria: nanomolar concentrations
